Measurements reported in patent US6548072B1, “Skin care compositions containing an organic extract of chick pea” (Chesebrough-Pond's USA Co., division of Conopco, Inc., priority 1997, dated 2003).
For at least one compound, name, drawing or mass did not settle the structure.

System: piglet epidermal cells
Test: Piglet skin organ culture, 3H-thymidine incorporation into the epidermis
Assay type: cell-based, pig
Excerpt: Pig skin is morphologically and biochemically similar to human skin and is therefore used commonly for testing the effects of materials for, human topical use. Fresh shaved skin from piglets was obtained from the local slaughter house, washed with Dove® Soap and dermatomed at 200μ thickness to obtain the top epidermis and dermal layer. Uniform punch biopsies of the dermatomed pig skin was taken using a 7 mm punch. The biopsies were washed in medium containing high antibiotic/antimycotic mix(Kanamycin and penicillin and streptomycin from Gibco) and incubated for 3 days in high glucose DMEM medium containing hydrocortisone, L-glutamine, antibiotic and antimycotic in the absence of serum in transwell plates, 3 biopsies per well. The medium was fed from the bottom of the transwell so that the epidermal side of the biopsies was in contact with air. On the 3rd day, the medium was changed to fresh medium, and the biopsies were exposed to the various concentrations of various actives in 1 μl of DMSO, as indicated in Table 4. 3 days later, medium was changed, actives readded and the biopsies were labeled with 10 μCi of 3H thymidine per well. […] The data was calculated as mean cpm for at least 4 replicates, and was also calculated as % of control biopsies which received no actives.

| Compound | proliferation of piglet epidermal cells, in words |
| --- | --- |
| COc1ccc(-c2coc3cc(O)ccc3c2=O)cc1 [Formononetin, formononetin] | no significant growth stimulating effects |
| C[C@]12CC[C@@H]3c4ccc(O)cc4CC[C@H]3[C@@H]1CC[C@@H]2O [Estradiol, estradiol] | increased proliferation of the piglet epidermal cells |
